Results are given in words; binding and its absence hold for the method and conditions named. Binding seen in cells or lysates may run through a third protein. A result given as binding can be weak or reduced; the word gives no strength.

Chains of the proteins cited; added tags and fusions are not shown. Lines headed by an entry give the natural chain unless they say otherwise; changes in a name come on top.
UniProt O35344: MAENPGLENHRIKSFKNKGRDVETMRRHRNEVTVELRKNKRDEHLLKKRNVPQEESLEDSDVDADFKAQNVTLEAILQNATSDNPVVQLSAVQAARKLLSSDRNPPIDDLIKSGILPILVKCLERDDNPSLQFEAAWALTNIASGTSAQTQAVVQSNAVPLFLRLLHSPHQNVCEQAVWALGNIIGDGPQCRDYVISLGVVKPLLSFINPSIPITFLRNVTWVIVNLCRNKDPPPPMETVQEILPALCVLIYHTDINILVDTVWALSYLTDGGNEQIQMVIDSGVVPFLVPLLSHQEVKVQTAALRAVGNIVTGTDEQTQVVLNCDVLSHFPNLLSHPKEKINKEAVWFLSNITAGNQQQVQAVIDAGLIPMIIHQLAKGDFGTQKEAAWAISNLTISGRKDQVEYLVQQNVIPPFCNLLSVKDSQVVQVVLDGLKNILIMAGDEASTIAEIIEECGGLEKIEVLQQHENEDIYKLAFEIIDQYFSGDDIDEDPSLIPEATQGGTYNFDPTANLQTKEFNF
UniProt Q60960: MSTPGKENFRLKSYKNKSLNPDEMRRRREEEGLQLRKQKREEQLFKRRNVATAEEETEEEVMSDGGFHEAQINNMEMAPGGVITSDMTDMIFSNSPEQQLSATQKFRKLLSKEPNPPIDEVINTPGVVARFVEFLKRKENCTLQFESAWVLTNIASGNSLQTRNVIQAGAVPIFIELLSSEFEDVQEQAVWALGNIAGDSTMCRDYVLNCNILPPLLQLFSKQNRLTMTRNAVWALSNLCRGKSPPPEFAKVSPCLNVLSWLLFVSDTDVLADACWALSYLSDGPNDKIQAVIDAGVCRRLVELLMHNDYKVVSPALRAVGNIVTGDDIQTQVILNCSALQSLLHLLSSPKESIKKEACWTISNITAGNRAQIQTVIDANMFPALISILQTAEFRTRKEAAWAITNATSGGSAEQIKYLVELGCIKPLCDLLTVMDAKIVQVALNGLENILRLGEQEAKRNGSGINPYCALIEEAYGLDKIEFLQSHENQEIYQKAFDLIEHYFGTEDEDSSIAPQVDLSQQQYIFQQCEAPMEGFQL
UniProt O35343: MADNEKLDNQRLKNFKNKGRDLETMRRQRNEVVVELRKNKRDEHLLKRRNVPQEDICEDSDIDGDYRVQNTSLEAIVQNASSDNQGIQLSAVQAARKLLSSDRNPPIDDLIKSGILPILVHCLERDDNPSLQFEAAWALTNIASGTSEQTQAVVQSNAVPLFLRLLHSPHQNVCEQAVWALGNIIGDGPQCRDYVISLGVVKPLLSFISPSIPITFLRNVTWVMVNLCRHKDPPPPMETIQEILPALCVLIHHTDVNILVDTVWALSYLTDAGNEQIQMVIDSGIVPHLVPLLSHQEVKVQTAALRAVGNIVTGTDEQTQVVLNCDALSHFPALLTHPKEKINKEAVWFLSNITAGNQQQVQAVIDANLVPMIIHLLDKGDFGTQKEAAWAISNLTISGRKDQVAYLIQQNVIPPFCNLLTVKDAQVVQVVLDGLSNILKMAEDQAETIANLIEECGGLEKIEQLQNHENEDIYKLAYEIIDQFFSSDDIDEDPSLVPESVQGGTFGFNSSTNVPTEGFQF

The target of this assay is GST-tagged HNF1β DNA binding domain (human) (UniProt P35680). The assay is described as follows: pull-down; crude E. coli extracts of GST-tagged HNF1β^DBD and ΔIBB Importin-α mixed, bound to glutathione resin, washed, eluted by TEV cleavage between GST and HNF1β^DBD; SDS-PAGE.

On to “ΔIBB-mImportin-α7 (from UniProt O35345) (domain or fragment)”, for which the binding entry is “binds weakly”. The result for “ΔIBB-mImportin-α4 (from UniProt O35344) (domain or fragment)” reads “binds weakly”; that for “ΔIBB-mImportin-α5 (from UniProt Q60960) (domain or fragment)”, “binds”. The result for “ΔIBB-mImportin-α3 (from UniProt O35343) (domain or fragment)” reads “binds weakly”.

The values above are taken from paper PMC4991853.
